Measured values reported in PMC7501302.
No constants are given. Whether binding was seen depends on the method and setting. Binding seen in cells or lysates may run through a third protein. Here binding means that the protein was enriched with, or labelled near, the bait; the list need not be complete. Where a sequence is shown, tags or fusion partners need not be part of it.

Amino acid sequences for entries named in this document (tags omitted).
UniProt O95251: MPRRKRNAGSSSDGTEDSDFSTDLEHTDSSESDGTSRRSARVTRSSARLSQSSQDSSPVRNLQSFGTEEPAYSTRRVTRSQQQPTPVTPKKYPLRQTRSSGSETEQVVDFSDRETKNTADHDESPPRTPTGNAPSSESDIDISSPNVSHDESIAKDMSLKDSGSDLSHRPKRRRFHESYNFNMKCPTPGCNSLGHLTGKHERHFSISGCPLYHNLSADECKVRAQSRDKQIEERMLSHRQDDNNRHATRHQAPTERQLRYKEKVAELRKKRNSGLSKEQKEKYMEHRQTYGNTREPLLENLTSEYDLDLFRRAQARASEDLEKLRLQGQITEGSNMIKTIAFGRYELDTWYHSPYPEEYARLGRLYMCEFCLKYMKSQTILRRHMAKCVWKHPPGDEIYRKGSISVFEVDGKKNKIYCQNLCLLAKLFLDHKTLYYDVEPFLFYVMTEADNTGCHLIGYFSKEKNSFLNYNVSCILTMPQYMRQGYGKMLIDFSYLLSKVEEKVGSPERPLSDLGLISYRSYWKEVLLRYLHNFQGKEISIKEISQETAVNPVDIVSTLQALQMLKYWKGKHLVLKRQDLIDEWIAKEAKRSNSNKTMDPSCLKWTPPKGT

Target: T1, FLAG-PKD1 (protein kinase D1), expressed in HEK293T cells (UniProt Q15139)
T1 sequence: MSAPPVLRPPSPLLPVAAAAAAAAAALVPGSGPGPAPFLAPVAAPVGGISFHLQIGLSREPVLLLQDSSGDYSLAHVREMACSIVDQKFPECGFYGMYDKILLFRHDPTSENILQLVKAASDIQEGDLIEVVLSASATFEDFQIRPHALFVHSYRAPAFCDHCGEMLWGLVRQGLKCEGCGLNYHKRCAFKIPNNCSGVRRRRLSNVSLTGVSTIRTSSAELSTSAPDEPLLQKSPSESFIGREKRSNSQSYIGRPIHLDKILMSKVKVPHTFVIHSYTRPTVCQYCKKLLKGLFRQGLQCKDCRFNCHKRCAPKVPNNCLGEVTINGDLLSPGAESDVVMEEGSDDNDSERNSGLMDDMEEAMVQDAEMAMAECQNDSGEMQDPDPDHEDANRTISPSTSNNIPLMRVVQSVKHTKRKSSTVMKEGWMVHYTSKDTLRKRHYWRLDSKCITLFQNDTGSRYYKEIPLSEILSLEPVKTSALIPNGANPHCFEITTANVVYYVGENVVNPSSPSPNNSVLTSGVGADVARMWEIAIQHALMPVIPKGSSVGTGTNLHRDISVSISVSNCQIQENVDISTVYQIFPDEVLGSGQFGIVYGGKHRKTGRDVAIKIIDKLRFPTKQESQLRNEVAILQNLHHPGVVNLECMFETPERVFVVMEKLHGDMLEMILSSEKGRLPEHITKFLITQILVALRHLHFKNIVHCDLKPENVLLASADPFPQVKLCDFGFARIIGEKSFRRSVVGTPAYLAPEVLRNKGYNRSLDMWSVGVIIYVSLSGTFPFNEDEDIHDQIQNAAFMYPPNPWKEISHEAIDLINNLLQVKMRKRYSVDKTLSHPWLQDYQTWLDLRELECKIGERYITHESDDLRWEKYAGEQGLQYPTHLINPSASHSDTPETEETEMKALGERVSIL
Assay: affinity purification with mass spectrometry; extracts of HEK293T cells overexpressing FLAG-PKD1, anti-FLAG antibody and protein G-Sepharose; eluate on SDS-PAGE, silver stained, bands analysed by LC-MS/MS

**Q.** Which binding does the source give for “endogenous KAT7 (from UniProt O95251 1-611)” here?
**A.** binds
